From the supplement of paper PMC5949888
Most values lie at the floor of the assay. Slopes are relative: functional sequences can read slightly below zero.

Each substance was assayed on Saccharomyces cerevisiae PS128 hsf1 delta, HSF1(1-493) fusion (assay: growth estimate (transactivation domain function in HSF1 fusion, heat-shock survival) (a.u. (slope of normalised read count over time)); higher = stronger growth at 37°C, i.e. more transactivation activity). Settings: library: random library.

| Substance | growth estimate |
| --- | --- |
| FPINLYETNRLVNRWSDEVA | < -0.25 |
| NSRRECPSGVLRP | < -0.25 |
| MPFSIARASTVPYYS | -0.217 |
| KVCVPTLRCVLEDMGSVRSG | < -0.25 |
| YPLCSGIGAVYSAPLRCLFA | < -0.25 |
| AKIINSRRVIGLLRAQGSLA | < -0.25 |
| GTCGGHK | < -0.25 |
| CANVLK | < -0.25 |
| VVCGPSV | < -0.25 |
| GQPLQTGS | < -0.25 |
| IVL | < -0.25 |
| VVACHRVLILVGRTRCHVWA | < -0.25 |
| GDRTCCYMALYPPAKGMRAA | < -0.25 |
| SGLHRSMVDPCIQKRPSPLA | < -0.25 |
| YEAPNSSSTSISRGCVINTG | < -0.25 |
| WDG | < -0.25 |
| YGISGHVRHNLLNALFQHRH | < -0.25 |
| ICLNLEFRET | < -0.25 |
| AFGHADVI | < -0.25 |
| SWKQINRYSMHAYCDHQARL | < -0.25 |
| LCRIGTNGRVVPHRGTVSGL | < -0.25 |
| RWTVTPGRIEVSAVSGFRQA | < -0.25 |
| QLWSERAPLFGRSTEGALFH | < -0.25 |
| QSRNE | < -0.25 |
| ISHRAEHDFW | < -0.25 |

| Substance | growth estimate |
| --- | --- |
| RRRTPHPLLLKSGTASSSQA | < -0.25 |
| VVAQEPIGYRGRCRSDCMGP | < -0.25 |
| SDLTALDTVI | -0.243 |
| LEDSISTSMSVVRIIGAAT | < -0.25 |
| SGTKPNGFGARYLV | < -0.25 |
| LSSPSLSSRENAHRISEPGR | < -0.25 |
| LCLQMEEV | -0.243 |
| LVKPLKLGYPFDLRHYAQYC | < -0.25 |
| LQS | < -0.25 |
| VFCQISDRVLDGTHPAILFH | < -0.25 |
| TAPLQGGASRCTRGQDSGVT | < -0.25 |
| IRTVTMTHMGNPFAGTTSSR | < -0.25 |
| YRLGHFL | < -0.25 |
| RRPNGRRSEVLQCVREYRLC | < -0.25 |
| ASYATCRGPG | < -0.25 |
| YARGLDERP | < -0.25 |
| SVGHFSSRYTGFSYWVGQ | < -0.25 |
| RNRYLADELSDMTRG | < -0.25 |
| RIQSYWVGSGTGPCEADTGV | < -0.25 |
| RVLPVLLLISQGMCT | < -0.25 |
| GDSRQRHSKKYAAFSPVHYG | < -0.25 |
| ALKLGSLSWALHGQYTDLRS | -0.0257 |
| PCEMQKAIAELCSGPGRQ | < -0.25 |
| IDKDKGHYMGVSHAFSRDKS | < -0.25 |
| EPFSFSWRILSSGTCQQHPR | < -0.25 |

| Substance | growth estimate |
| --- | --- |
| KQCLESVTGSVSRCRGGKSL | < -0.25 |
| KSDAVSPVRHRLTEARWLSP | < -0.25 |
| GGNLFAAAALIVNPKK | < -0.25 |
| WVAAPVLVAVDQRS | < -0.25 |
| SGHDTSSEFRRSVAYFSSDK | < -0.25 |
| RLERVWTGHVLVEGFRPLHQ | < -0.25 |
| RATFVSIGRRDLGA | < -0.25 |
| HFIDESRII | < -0.25 |
| ADLRTMSNYLRSDVGALNAR | < -0.25 |
| FDRKFIVSLIWVILQGTSNL | < -0.25 |
| VRVESWIRKLGRRRGFCCHR | < -0.25 |
| DTVRR | < -0.253 |
| RASEIGTETRSGPPIMCVAP | < -0.25 |
| AYGSYNHQNNRRVL | < -0.25 |
| SSRLWLNVEQGARME | < -0.25 |
| RSVKPSTLRYSKYRTPVKVQ | < -0.25 |
| RRRCILRHYELSSWSTVPGY | < -0.25 |
| GRLIFINESEVTQVG | < -0.25 |
| FPAGPLLHLLLMGIGGACKS | < -0.25 |
| AGFGAPSATRASQLCAAIGA | < -0.25 |
| DRVRLACRLLRLYTRRL | < -0.25 |
| TTHRGDNNDESDTSHVLASV | < -0.25 |
| LEKGAV | < -0.25 |
| TVTIITERRSSLLVVRRPRR | < -0.25 |
| SMGGPAPSSSP | < -0.25 |

Rewritten with bars between the fields: part of the list above
Substance | growth estimate
DRVRLACRLLRLYTRRL | < -0.25
TTHRGDNNDESDTSHVLASV | < -0.25
LEKGAV | < -0.25
TVTIITERRSSLLVVRRPRR | < -0.25

Carrying on:

| Substance | growth estimate |
| --- | --- |
| LWNSQWASSHAAFDLGREST | < -0.25 |
| RAR | < -0.25 |
| SGVENKIGQLWWPAALQTGW | < -0.253 |
| VSRLLNA | < -0.25 |
| LRTL | < -0.25 |
| QLNE | < -0.25 |
| IASPSGSKGRS | < -0.25 |
| CTWDAMSVWFGKGATSEGCR | < -0.25 |
| SRDTVENSLALHR | < -0.25 |
| RSGA | < -0.25 |
| VVSDGKAVSIPPLPPGDFTR | < -0.25 |
| RGSSVATGKQSGHWVIVS | < -0.25 |
| NDQPWHRK | < -0.25 |
| FCTVSV | < -0.25 |
| RVSQDAR | < -0.25 |
| SPVHFRRK | < -0.25 |
| MMSCLSTVSPTVRNLPASPR | -0.231 |
| RNTRVESLTGP | < -0.25 |
| CLAYLFRYCLV | < -0.25 |
| LEQLGLRGRSR | < -0.25 |
| GLGRSPGEA | < -0.25 |
| VVGPLIGLVDCP | < -0.25 |
| ELQLVYMHSRA | < -0.25 |
| NFRFDLVFRATDDADVGAYV | < -0.25 |
| RVLQPNMGR | < -0.25 |

| Substance | growth estimate |
| --- | --- |
| SIVIGSLAWGLYDNEG | < -0.25 |
| KTGSNNECLSELVWD | < -0.25 |
| GTYR | < -0.25 |
| GRSGQFATYGKGNS | < -0.25 |
| QSSGGRVPPGL | < -0.25 |
| LLVASLGDVRVITGFMCPRC | < -0.25 |
| LSGVHSEASDTNSRIGEVLG | < -0.25 |
| MRGAAAEEMGSSVEKLEKWV | < -0.25 |
| FVKCGAFSL | < -0.25 |
| WPTHYGCAVGIGRGGRHRCC | < -0.25 |
| VETLTYGTESGIRVAMVSPG | < -0.25 |
| KVVELEDEWPRVKPG | < -0.25 |
| GHVFDRFV | -0.226 |
| QSTAGIMSWQFSKLVLQLKR | < -0.25 |
| PVK | < -0.25 |
| WGCCECPITLTDSSQRVRLS | < -0.25 |
| YHGEIL | < -0.25 |
| CGSTLAVTQA | < -0.25 |
| SAAPVRFPVRTVARLRRAVA | -0.246 |
| VIRPGGVGPCQG | < -0.25 |
| TQLS | < -0.25 |
| IVMIWLR | < -0.25 |
| LGTKWVTQSAG | < -0.25 |
| WHMPALTLRPGIT | < -0.25 |
| SPK | < -0.25 |

| Substance | growth estimate |
| --- | --- |
| SDR | < -0.25 |
| GVGQEPTRINPSVLCCLENY | < -0.25 |
| TSPPDSGKSRGIGFLI | < -0.25 |
| RTPGLAAGHRGFRP | < -0.25 |
| LGRFVGYHGMISVKGFIRTR | -0.182 |
| RKSRVRREESRGSIGHTCQW | < -0.25 |
| SHSDRHPKSGSAINESCSCA | < -0.25 |
| LACSGTYKPLGEEWKDPLPS | < -0.25 |
| FGDR | < -0.25 |
| DRTGWR | < -0.25 |
| QDPRTRVWHTGATWGGCQRH | < -0.25 |
| EAADAWS | < -0.25 |
| LST | < -0.25 |
| PGAVDNGGL | < -0.25 |
| WSNAVMDGY | < -0.25 |
| SRKGRATVNKLGS | < -0.25 |
| LQRGHGSQEAVNLF | < -0.25 |
| CASSGVDSFLCRPTMLKPSS | < -0.25 |
| QTGDVRARSLLCDAIFARTK | < -0.25 |
| MCPINLKGTCVLTCRKLWRA | < -0.25 |
| TAGP | < -0.25 |
| FTGSSI | < -0.25 |
| TACPTST | < -0.25 |
| REVHNETA | < -0.25 |
| PRVLCFRVFQTDRTTRQFGG | < -0.25 |

| Substance | growth estimate |
| --- | --- |
| LGVLWGAVLRKARLPRARFC | < -0.25 |
| WGALQAAEVAPADTDSSCVH | < -0.25 |
| PKSTAYMAGPVTCRGVL | < -0.25 |
| DRVRVGVPAGSTAASP | < -0.25 |
| YSFYWRIGLR | -0.246 |
| AQLGGQVRV | < -0.25 |
| QSTPGEKDGAPNWLHMRALV | < -0.25 |
| RVWKSLG | < -0.25 |
| DRVLHRIRFQWIQLASLPPS | < -0.25 |
| ERTTMFQTLFSRNPQDTCEA | < -0.25 |
| LNVSMEGVGRRIIAAHPQRP | < -0.25 |
| PSRGAAHGAGHDCRPRRLKG | < -0.25 |
| CSIVGWPRKVVERATPWFVH | < -0.25 |
| LALLWVVSVI | < -0.25 |
| AEETHPHYINGGGARRGQRG | < -0.25 |
| RFETAIVSSSTWFWGIVPLS | < -0.25 |
| ACIRVVAFSLMRMTHKIAGR | < -0.25 |
| GVGVTWLTGEPAEGTSSAHG | < -0.25 |
| CPTGYCKDVLVVRRYILQGG | < -0.25 |
| IRAIDISVIAEQSPFWAPSL | < -0.25 |
| GRKYVYLEWRLPPF | < -0.25 |
| TGLHSCSM | < -0.25 |
| ITGAWARAAPRASGI | < -0.25 |
| HGQ | < -0.25 |
| HTGQAGGGAKNSAYPRRPNM | < -0.25 |

Copied from the entries so far for reference:

| Substance | growth estimate |
| --- | --- |
| DRVRVGVPAGSTAASP | < -0.25 |
| YSFYWRIGLR | -0.246 |
| AQLGGQVRV | < -0.25 |
| QSTPGEKDGAPNWLHMRALV | < -0.25 |
| RVWKSLG | < -0.25 |
| DRVLHRIRFQWIQLASLPPS | < -0.25 |

Next records follow.

| Substance | growth estimate |
| --- | --- |
| FIQP | < -0.25 |
| GSQVSVDKDIDWWFTPG | < -0.25 |
| GRGKPGRNAMGG | < -0.25 |
| ALFVSA | < -0.25 |
| KIHVAPN | < -0.25 |
| IKGILALHGRLIDETENKWT | < -0.25 |
| YRLNWAFNRLLSRDIYTLTS | < -0.25 |
| SEGLPLTFSLAVPLTSVGID | < -0.25 |
| VPQSYP | < -0.25 |
| TVCGRRPLPEV | < -0.25 |
| CELNVASNGPLLARHIGTQC | < -0.25 |
| TDVGTHTEGLTSHARAPYAR | < -0.25 |
| SLRADFRVLSREFTSRILRA | < -0.25 |
| PRHSAGQ | < -0.25 |
| TVWEATYALD | < -0.25 |
| HVPGCDTVEHEISRRP | < -0.25 |
| SQLGSACSVPNRFDDSVLPP | < -0.25 |
| KLLEKRAGGPSITRGFQGRT | -0.192 |
| YGTSQLCFKVVRINGILLAR | < -0.25 |
| LELLLIRHHRMCNLEVPC | < -0.25 |
| KVVSSRPSIDSTLMFRTI | < -0.25 |
| ARDKTRLSGLSRTT | < -0.25 |
| RPAVCFHVRLSVGYNRTVSA | < -0.25 |
| TKPSEPELEAKKGVVIRVEA | < -0.25 |
